Source: PubChem BioAssay AID2685 (National Center for Advancing Translational Sciences (NCATS), 2010)
The list shows a part of the results. These are further read-outs of the screen, such as a control signal, another cell line or another target. No call is given for them. Most of these compounds were active or inconclusive in the main read-out, so they are no random draw. Words in brackets tell the shape of the fitted curve; partial curves, single points and poor fits give uncertain potencies.

Assay: qHTS Assay for Lipid Storage Modulators in Drosophila S3 Cells;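 for cell number change: cells counted by Cell Tracker Red CMTPX staining in the red channel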
Details: BODIPY lipid droplet fluorescence, 18-24 h; for cell number change: measured here: cell count max response, cells fed with added oleic acid
Method in brief: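 Drosophila S3 cells got compounds at several concentrations plus oleic acid (400 uM solution). Laser-scanning cytometry with 488 nm excitation read lipid droplets at 500-530 nm and cells at 575-640 nm. Percent activity was relative to 20 uM Triacsin C.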

[1] = measured here: cell number channel AC50, cells fed with added oleic acid
[2] = measured here: lipid fluorescence (Fed channel) AC50, cells fed with added oleic acid

SMILES	cell number change [%]	AC50 [1]	AC50 [2]
Cc1cc(C(=O)N2CCCC(N3CCN(c4cccc(C(F)(F)F)c4)CC3)C2)no1 (configuration not stated)	30.3	14.6 µM [rising, partial curve, poor fit]	29.1 µM [rising, single point]
C/C(=N\NC(=O)c1c[nH]c2ccccc12)c1ccc2c(c1)OCO2	24.7	4.11 µM [rising, single point]	4.11 µM [rising, partial curve, poor fit]
O=C(c1ccc(=O)[nH]c1)N1CCN(S(=O)(=O)c2cc(C(F)(F)F)ccc2Cl)CC1	-6.58		
CN(C)C(CNS(=O)(=O)c1ccc(F)cc1)c1cccnc1 (configuration not stated)	-0.271		13 µM [rising, partial curve]
c1ccc2[nH]c(CSc3nnc(-c4ccncc4)o3)nc2c1	-3.05		0.00651 µM [rising, full curve, poor fit]
Nc1ccc(-c2c3ccc(=O)cc-3oc3cc(O)ccc23)cc1C(=O)O	-94.4	9.2 µM [falling, partial curve]	2.31 µM [falling, full curve]
CCN(CC)c1ccc(C(=O)OCC(=O)NC2CCCCC2C)cc1 (configuration not stated)	-0.424		
CN1CCN(c2oc(-c3cccs3)nc2S(=O)(=O)c2ccccc2)CC1	37.6	0.00517 µM [rising, full curve, poor fit]	
CC1(c2ccc(OC(F)F)cc2)NC(=O)N(CC(=O)NCCC2=CCCCC2)C1=O (configuration not stated)	5.94		0.411 µM [falling, full curve, poor fit]
NCc1nc(-c2ccc(Cl)cc2)no1	-19.1		29.1 µM [falling, single point]
COc1ccc(C)cc1NC(=O)CCN1CCN(C/C=C/c2ccccc2)CC1	0.293		2.06 µM [falling, partial curve]
CS(=O)(=O)c1ccc(C(=O)OC2CCOC2=O)cc1[N+](=O)[O-] (configuration not stated)	-6.41		4.11 µM [rising, partial curve, poor fit]
CCCN1CCN(S(=O)(=O)c2cc3c(cc2C)NC(=O)CO3)CC1	18.7		29.1 µM [rising, single point]
CCC1Oc2ccccc2N(CC(=O)NCCCN2CCN(Cc3ccccc3)CC2)C1=O (configuration not stated)	2.36		18.4 µM [rising, partial curve, poor fit]
O=C(NCCC1CCCCN1S(=O)(=O)c1cccs1)C(=O)Nc1cccc(F)c1 (configuration not stated)	-105	18.4 µM [falling, partial curve]	
Cc1cccc(-n2nc3c(c2NC(=O)c2cc4ccccc4o2)CS(=O)(=O)C3)c1	-14.1		18.4 µM [falling, single point]
COc1cccc(NC(=O)C2CCCC2)c1	-21.6		25.9 µM [rising, single point]
Cc1c(C)n(Cc2ccc(F)cc2)c2ccc(C(=O)N3CCN(c4ccccn4)CC3)cc12	-5.77		
COc1ccc(CN2C(=O)CCC2(C)C(=O)NCc2cccnc2)c(OC)c1 (configuration not stated)	17.5		2.31 µM [rising, partial curve]
COc1ccccc1C/C(N)=N/OC(=O)c1cccc([N+](=O)[O-])c1C	32.1	7.31 µM [rising, partial curve]	10.3 µM [rising, partial curve]
COc1ccc(OC)c(/C=N/NC(=O)c2ccc[n+](CC(=O)c3ccccc3)c2)c1	17.5		14.6 µM [rising, single point]

Laid out differently: 2 of the compounds above
SMILES | cell number change [%] | AC50 [1] | AC50 [2]
CS(=O)(=O)c1ccc(C(=O)OC2CCOC2=O)cc1[N+](=O)[O-] (configuration not stated) | -6.41 |  | 4.11 µM [rising, partial curve, poor fit]
O=C(NCCC1CCCCN1S(=O)(=O)c1cccs1)C(=O)Nc1cccc(F)c1 (configuration not stated) | -105 | 18.4 µM [falling, partial curve] | 

Following part:

SMILES	cell number change [%]	AC50 [1]	AC50 [2]
COc1ccccc1-c1n[nH]c(=S)n1Cc1ccco1	-3.01	6.51 µM [rising, partial curve, poor fit]	
CNc1nc(Cl)c(SC)c(NC2CCCCC2)n1	-4.56		
NS(=O)(=O)c1ccc(NC(=O)c2cc(-c3cc(Cl)ccc3O)n[nH]2)cc1	370	4.11 µM [falling, single point]	
O=C(CCCSc1ccc(Cl)cc1)Nc1ccccc1O	42.5	29.1 µM [rising, single point]	0.58 µM [rising, single point]
Cc1ccccc1NC(=O)C(C)O/N=C/c1cccc([N+](=O)[O-])c1 (configuration not stated)		0.92 µM [rising, partial curve]	3.26 µM [rising, partial curve]
CCCCN1C(=O)c2ccc(C(=O)NC3=NCCS3)cc2C1=O	-23.8		1.16 µM [rising, full curve]
COc1ccc(C(=O)COC(=O)/C=C/c2ccco2)cc1F	-47.6	0.92 µM [falling, full curve, poor fit]	0.92 µM [falling, full curve, poor fit]
COc1ccc(NC(=O)NCCCN2CCC(Cc3ccccc3)CC2)cc1		6.51 µM [rising, single point]	
CC(C)(C)c1ccc(C(=O)N2CCC(=O)N(C(CO)Cc3ccccc3)CC2)cc1 (configuration not stated)	-4.68		14.6 µM [falling, single point]
NS(=O)(=O)c1cccc(NC(=O)COC(=O)CN2C(=O)C3CC=CCC3C2=O)c1 (configuration not stated)	3.97		
CC(CNC(=O)c1ccc(NC2=NC3CS(=O)(=O)CC3S2)cc1)c1ccccc1 (configuration not stated)	-2.02		
Cc1ccc(/C=C2\C(=O)NC(=O)N2C)o1		0.731 µM [falling, full curve, poor fit]	
CC(C)(C)NC(=O)NC(=O)CN1CCN(S(=O)(=O)/C=C/c2ccccc2)CC1	3.36		
CCOC(=O)c1c(NC(=O)C(C)Sc2cn(C)c3ccccc23)sc2c1CCC2 (configuration not stated)	-1.54		10.3 µM [falling, partial curve]
COc1ccc(OC)c(C(=O)N2CCCC(Nc3ccc(F)cc3)C2)c1 (configuration not stated)	-16.8		0.58 µM [falling, single point]
O=C(NCc1ccc(F)cc1)c1ccc(CS(=O)Cc2ccccc2Cl)o1 (configuration not stated)	-16.2		4.11 µM [rising, single point]
O=C(CCc1nc2ccccc2c(=O)[nH]1)N1CCN(c2ccc(F)cc2)CC1	1.69	1.16 µM [rising, single point]	
COc1cc(C(=O)NC2CCCc3ccccc32)cc(OC)c1OC (configuration not stated)	-34.1	4.61 µM [falling, partial curve, poor fit]	29.1 µM [rising, single point]
CCCN1CCN(C2CCCCC2NS(=O)(=O)c2ccccc2)CC1 (configuration not stated)	22.5		
CCOc1ccc2nc(C(C)O)[nH]c2c1 (configuration not stated)	0.671		
Cc1ccc(C(C)C)c(OCC(=O)NN=C(CCl)CCl)c1	18.8	3.66 µM [rising, partial curve]	1.16 µM [rising, partial curve, poor fit]

SMILES	cell number change [%]	AC50 [1]	AC50 [2]
Cc1ccc(/C(N)=N/OC(=O)c2ccc(Cl)cc2Cl)cc1	13.7		
Cc1cccc(-n2c(O)c(C=Nc3ccccc3N)c(=O)[nH]c2=O)c1	-1.9		2.06 µM [rising, full curve]
OC1(c2ccc(F)cc2)CCN(Cc2cccnc2)CC1	14.4		
N/C(=N\OC(=O)c1ccoc1)c1ccc(Br)cc1	7.18		35.5 µM [rising, single point]
COc1ccc(-c2c(-c3ccccc3OC)sc3ccccc23)cc1	22.7		29.1 µM [rising, single point]
CSc1ccc(S(=O)(=O)NC(C)c2ccccc2)cc1 (configuration not stated)	135	29.1 µM [rising, single point]	0.0058 µM [rising, full curve, poor fit]
COc1cc(/C=C2/SC(=S)N(Cc3ccccc3)C2=O)cc(Cl)c1O	-97.2	1.46 µM [falling, full curve]	9.2 µM [rising, partial curve]
CCc1ccc(NC(=O)C2CCCN(S(=O)(=O)c3cccs3)C2)cc1 (configuration not stated)	-15.9		6.51 µM [rising, single point]
CCOc1ccc(C(=O)NCC(=O)OCC(=O)Nc2cccc(S(=O)(=O)N3CCCC3)c2)cc1	-6.47		0.517 µM [falling, single point]
COc1ccc(-c2cc(C(=O)N3CCN(c4ccccc4F)CC3)c3ccccc3n2)c(OC)c1			7.31 µM [falling, partial curve]
O=C(Cc1ccc(S(=O)(=O)N2CCCCC2)s1)Nc1cccc2ccccc12	0.161		
COc1cccc(-n2cc(C(=O)NC(C)C)c3ccccc3c2=O)c1	7.04		
COc1ccc(-n2nc3c(c2NC(=O)CCl)CSC3)cc1	-22.2		8.2 µM [falling, partial curve]
COc1cccc(CNC(=O)CCCc2nnc3n(C)c(=O)c4sccc4n23)c1	15.8	0.58 µM [falling, full curve]	0.366 µM [falling, partial curve, poor fit]
Cc1nn(-c2ccc(C(=O)O)cc2)c(C)c1Cl	8.86		1.03 µM [falling, full curve]
COC(=O)c1[nH]c2cccc(Cl)c2c1NC(=O)CN(C)C1CCCCC1	-14.2		
COCc1cc(=O)n2[nH]cc(-c3ccsc3)c2n1	24.3		20.6 µM [rising, single point]
CCOC(=O)/C(=C/c1c[nH]c2ccccc12)NC(C)=O	-0.575		
COc1ccc(N2CCN(C3CCCN(S(=O)(=O)c4ccc(C)cc4C)C3)CC2)cc1 (configuration not stated)	-23.9		4.61 µM [falling, full curve]
COc1ccc(NC(=O)CNC(=O)Cc2ccccc2)cc1	11.7		11.6 µM [falling, single point]
